Assay results from patent publication US20250134869A1, “Pyrrolo[2,3-d]pyrimidinyl, Pyrrolo[2,3-b]pyrazinyl and Pyrrolo[2,3-d]pyridinyl Acryla-mides” (Pfizer Inc, priority 2021, published 2025).

Assay: Stability of JAK3 covalent inhibitors in human whole blood
Conditions: 1 μM, 37° C.

Human blood stability t1/2 | Structure (SMILES)
>6 h | C=CC(=O)N1C2CCC(Nc3ncnc4[nH]ccc34)C1CC2 (centres unmarked) [Example 56, 1-(2-((7H-Pyrrolo[2,3-d]pyrimidin-4-yl)amino)-8-azabicyclo[3.2.1]octan-8-yl)prop-2-en-1-one]
>5.975 h | C=CC(=O)N1[C@H]2CC[C@@H]1[C@H](Nc1ncnc3[nH]ccc13)CC2 [Example 16, 1-((1R,2R,5R)-2-((7H-Pyrrolo[2,3-d]pyrimidin-4-yl)amino)-8-azabicyclo[3.2.1]octan-8-yl)prop-2-en-1-one]
